These are yes or no findings as the source states them, for the method shown. In cells and extracts the contact can be indirect. Some results given as binding are weak or reduced against the parent protein; the word gives no strength. Where a sequence is shown, tags or fusion partners need not be part of it.
Legend:
[1] = target: T1, MBP-AT2: fusion protein between the C-terminal end of the human AT2 receptor (Asn314-Ser363) and Maltose Binding Protein (human) (UniProt P50052); assay: GST pull-down
T1 sequence (looked up): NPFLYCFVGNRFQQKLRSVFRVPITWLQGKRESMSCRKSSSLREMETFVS

[2] = target: T1, MBP-AT2: fusion protein between the C-terminal end of the human AT2 receptor (Asn314-Ser363) and Maltose Binding Protein (human); assay: GST pull-down (FIG. 10)
[3] = target: T1, MBP-AT2: fusion protein between the C-terminal end of the human AT2 receptor (Asn314-Ser363) and Maltose Binding Protein (human); assay: GST pull-down, SDS-PAGE and immunoblot with anti-MBP

Measured: binding

B1: GST-ATIPmouse-short fusion protein (from pGEX-4T1-GST-ATIPmouse-short), on glutathione-agarose beads (protein, not shown: a dimerising Fc or GST)
chain: QTDRTELENRLKDLYTAECEKLQSIYIEEAEKYKTQLQEQFDNLNAAHETTKLEIEASHSEKVELLKKTYETSLSEIKKSHEMEKKSLEDLLNEKQESLEKQINDLKSENDALNERLFEFPGRLERPHRD
binds: all assays above

— US20060040277A1 (published 2006)
